Measurements reported in PubChem BioAssay AID1508597 (Cure First, 2020)

Aim: 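Knock-downs altering ovarian cancer cell survival with or without PARP inhibitor rucaparib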 (primary screen)
System: human ovarian carcinoma lines grown from tumours: OCI-P5x (papillary serous) and OCI-C5x (clear cell)
Reagent: siRNA pool against human genes, 1.25 pmol siRNA per well
Time to read-out: 72 h or 96 h, depending on the cell culture
Conditions: rucaparib 20 µM (about IC30) or vehicle, present until read-out
Rucaparib or vehicle: Vehicle
Cell line: OCI-P5x (serous)
Read-out: 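Luminescent ATP-based viability assay read 72 or 96 h after transfection, depending on culture, given as normalised percent viability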
Reading the numbers: viability, normalised: higher = more viable cells remaining
Hit rule: 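Active when normalised viability falls below 80 percent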
Meaning of the calls: active = viability under 80%; inactive = viability 80% or more
This is a random part of the about 2,100 reagents, under one of the conditions tested. 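Calls flag viability under 80% in either arm, not effects specific to rucaparib; the reference for percent is not stated.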 A number with no mark means an inactive call. Some reagents were tested in more than one well and are listed for each. Not given: the 100% reference.

no.	target	technical replicate	viability, normalised (%)
1	PLCB1	1	59.8 (active)
2	PLCB1	2	61.2 (active)
3	PLCB1	3	70.6 (active)
4	TTF1	1	50.1 (active)
5	TTF1	2	49.5 (active)
6	TTF1	3	47.5 (active)
7	ATOH1	1	70.2 (active)
8	ATOH1	2	72.1 (active)
9	ATOH1	3	84.3
10	BRD8	1	63.6 (active)
11	BRD8	2	81.9
12	BRD8	3	73.7 (active)
13	LIG4	1	82.9
14	LIG4	1	65.1 (active)
15	LIG4	2	58.2 (active)
16	LIG4	2	88.2
17	LIG4	3	90.5
18	LIG4	3	68 (active)
19	BMI1	1	75.6 (active)
20	BMI1	2	87.4
21	BMI1	3	81.9
22	EPHB2	1	94.9
23	EPHB2	2	79.8 (active)
24	EPHB2	3	75.6 (active)
25	MYOCD	1	39 (active)
26	MYOCD	2	44.7 (active)
27	MYOCD	3	41.7 (active)
28	KMT2B	1	63.5 (active)
29	KMT2B	2	60.3 (active)
30	KMT2B	3	62.2 (active)
31	SS18L1	1	59.6 (active)
32	SS18L1	2	51 (active)
33	SS18L1	3	64.1 (active)
34	FGFR4	1	84.3
35	FGFR4	2	72.1 (active)
36	FGFR4	3	86.8
37	ITPKC	1	67.1 (active)
38	ITPKC	2	63.9 (active)
39	ITPKC	3	72.7 (active)
40	FOXP1	1	36 (active)
41	FOXP1	2	33.6 (active)
42	FOXP1	3	37.2 (active)
43	SETDB2	1	40 (active)
44	SETDB2	2	50.4 (active)
45	SETDB2	3	60.5 (active)
46	USH2A	1	54.9 (active)
47	USH2A	2	54.9 (active)
48	USH2A	3	72.4 (active)
49	IRAK2	1	83.6
50	IRAK2	2	70.8 (active)
51	IRAK2	3	73.1 (active)
52	BNIP3	1	35.4 (active)
53	BNIP3	2	50.1 (active)
54	BNIP3	3	42 (active)
55	CHAF1B	1	60.3 (active)
56	CHAF1B	1	78.8 (active)
57	CHAF1B	2	85.8
58	CHAF1B	2	64 (active)
59	CHAF1B	3	61.5 (active)
60	CHAF1B	3	58.9 (active)

Laid out differently: results already given
{"target": "LIG4", "technical replicate": "1", "viability, normalised (%)": "65.1 (active)"}
{"target": "LIG4", "technical replicate": "2", "viability, normalised (%)": "58.2 (active)"}
{"target": "LIG4", "technical replicate": "2", "viability, normalised (%)": 88.2}
{"target": "LIG4", "technical replicate": "3", "viability, normalised (%)": 90.5}
{"target": "LIG4", "technical replicate": "3", "viability, normalised (%)": "68 (active)"}
{"target": "BMI1", "technical replicate": "1", "viability, normalised (%)": "75.6 (active)"}
{"target": "BMI1", "technical replicate": "2", "viability, normalised (%)": 87.4}
{"target": "BMI1", "technical replicate": "3", "viability, normalised (%)": 81.9}
